By UniProt entry, the sequences of proteins in these tests, tags left out.
UniProt P09874, whole entry: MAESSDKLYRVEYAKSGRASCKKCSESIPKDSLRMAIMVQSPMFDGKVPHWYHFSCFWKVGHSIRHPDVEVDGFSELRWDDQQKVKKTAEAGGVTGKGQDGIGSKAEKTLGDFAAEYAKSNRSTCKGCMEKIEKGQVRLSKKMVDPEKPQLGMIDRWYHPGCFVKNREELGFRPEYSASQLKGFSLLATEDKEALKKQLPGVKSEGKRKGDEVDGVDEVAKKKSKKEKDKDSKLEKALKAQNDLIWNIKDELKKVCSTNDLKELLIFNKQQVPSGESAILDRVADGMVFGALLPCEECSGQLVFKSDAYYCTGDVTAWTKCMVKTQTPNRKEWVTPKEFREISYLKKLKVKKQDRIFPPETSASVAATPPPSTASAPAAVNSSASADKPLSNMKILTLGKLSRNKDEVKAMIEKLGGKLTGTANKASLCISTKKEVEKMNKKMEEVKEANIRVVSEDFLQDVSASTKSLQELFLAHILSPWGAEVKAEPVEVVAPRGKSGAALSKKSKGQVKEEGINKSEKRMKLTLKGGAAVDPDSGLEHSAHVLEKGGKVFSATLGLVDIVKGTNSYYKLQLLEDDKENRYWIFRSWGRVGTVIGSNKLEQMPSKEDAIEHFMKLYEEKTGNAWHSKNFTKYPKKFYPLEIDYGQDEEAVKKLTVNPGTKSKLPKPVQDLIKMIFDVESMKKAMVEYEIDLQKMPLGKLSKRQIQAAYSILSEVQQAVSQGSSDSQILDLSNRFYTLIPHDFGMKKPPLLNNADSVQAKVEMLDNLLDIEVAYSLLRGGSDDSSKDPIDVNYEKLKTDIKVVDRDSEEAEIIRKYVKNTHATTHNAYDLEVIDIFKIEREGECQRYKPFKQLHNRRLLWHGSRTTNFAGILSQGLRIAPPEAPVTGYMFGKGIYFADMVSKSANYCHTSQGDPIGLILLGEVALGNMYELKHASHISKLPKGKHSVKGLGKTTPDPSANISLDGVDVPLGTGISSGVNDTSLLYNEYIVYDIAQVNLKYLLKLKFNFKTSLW
UniProt P09874, whole entry W589A: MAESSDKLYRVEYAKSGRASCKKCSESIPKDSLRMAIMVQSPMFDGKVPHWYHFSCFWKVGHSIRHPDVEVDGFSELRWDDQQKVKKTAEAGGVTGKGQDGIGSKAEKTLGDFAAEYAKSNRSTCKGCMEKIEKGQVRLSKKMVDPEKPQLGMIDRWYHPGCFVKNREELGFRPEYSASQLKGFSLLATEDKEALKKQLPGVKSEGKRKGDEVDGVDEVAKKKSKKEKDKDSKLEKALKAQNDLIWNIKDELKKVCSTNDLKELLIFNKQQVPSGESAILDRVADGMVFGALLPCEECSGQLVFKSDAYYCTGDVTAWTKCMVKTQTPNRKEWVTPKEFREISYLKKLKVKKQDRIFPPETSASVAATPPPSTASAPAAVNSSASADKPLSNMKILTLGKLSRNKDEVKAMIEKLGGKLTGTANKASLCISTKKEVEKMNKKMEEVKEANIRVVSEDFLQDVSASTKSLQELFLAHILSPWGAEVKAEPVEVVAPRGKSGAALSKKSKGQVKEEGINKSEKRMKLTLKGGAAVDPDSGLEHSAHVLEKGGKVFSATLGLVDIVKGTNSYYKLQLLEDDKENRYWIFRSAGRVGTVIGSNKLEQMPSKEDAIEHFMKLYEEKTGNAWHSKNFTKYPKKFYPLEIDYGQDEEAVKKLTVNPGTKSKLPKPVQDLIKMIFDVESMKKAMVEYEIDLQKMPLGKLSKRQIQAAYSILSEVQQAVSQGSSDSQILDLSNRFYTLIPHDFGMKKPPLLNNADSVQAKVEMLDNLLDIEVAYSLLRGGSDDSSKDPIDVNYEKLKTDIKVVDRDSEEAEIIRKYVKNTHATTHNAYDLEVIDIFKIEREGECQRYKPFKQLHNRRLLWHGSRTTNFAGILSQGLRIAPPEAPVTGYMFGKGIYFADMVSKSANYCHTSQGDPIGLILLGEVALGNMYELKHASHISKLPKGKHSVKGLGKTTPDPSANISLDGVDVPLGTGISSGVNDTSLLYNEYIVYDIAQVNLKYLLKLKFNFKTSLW

According to article PMC6135609:

Experiments:
PARP1 WT (human) = PARP1 WT (human) (UniProt P09874); experiment: stopped-flow fluorescence anisotropy competition; conditions: second DNA binding to PARP1 pre-bound to p18mer* (ternary complex), k2 0.043 nM-1 s-1; 5'-phosphate; 50 mM Tris-HCl pH 7.5, 50 mM NaCl, 1 mM MgCl2, 0.1 mM EDTA, 0.01% IGEPAL, 20 C; recombinant protein; residues 1-1014
PARP1 W589A (human) = PARP1 W589A (human) (UniProt P09874); experiment: stopped-flow fluorescence anisotropy; conditions: apparent kinetic Kd, k-1 20 s-1; 5'-phosphate; 50 mM Tris-HCl pH 7.5, 50 mM NaCl, 1 mM MgCl2, 0.1 mM EDTA, 0.01% IGEPAL, 20 C; recombinant protein; residues 1-1014

Sequence | Kd (PARP1 WT (human)) [nM] | Kd (PARP1 W589A (human)) [nM]
GGGTTGCGGCCGCTTGGG (double strand) [p18mer (unlabeled)] | 2600 | 
GGGTTGCGGCCGCTTGGG (double strand) [p18mer* (labeled DSB model)] |  | 5

The exact form of at least one protein or probe is not confirmed.
